Measurements: PubChem BioAssay AID504834 (National Center for Advancing Translational Sciences (NCATS), 2011)
Among all 320,000 compounds or so, about 22,000 (6.9%) were called active. Inconclusive means that the source gave no clear call. Such entries were picked first, then a sample of the others. Calls follow the shape of the dose curve; as a rule, active = well fitted inhibition curve with a large enough effect; inconclusive = small, poorly fitted or top-dose-only effect, or another doubt; inactive = no such curve, though single readings can be large or run the other way. Where the call is inconclusive, the potency comes from a doubtful curve fit.

Assay: Primary qHTS for delayed death inhibitors of the malarial parasite plastid, 96 hour incubation
Details: P. falciparum luciferase reporter growth; series mostly up to 28.7 µM; activity change, negative = inhibition: at the top concentration
Method in brief: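 Two-generation exposure (96 h) targets delayed-death phenotype. Reporter parasites carrying integrated firefly luciferase, in red cells at 2% hematocrit and 0.05% parasitemia final, kept at 37 C, 5% CO2; luminescence loss indicates inhibition.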
% is scaled to controls: 0 for no effect and ±100 for the full control effect; potency is read from the fitted curve at half-maximal effect.

SMILES | Potency | activity change, negative = inhibition
Cc1cccc(OCC(=O)NCC(c2ccco2)N2CCCC2)c1 (stereo not drawn) | inconclusive: 10.4 µM [inhibitor, single point] | 
Cn1ccnc1SCC(=O)c1ccc2ccccc2c1 |  | inactive: 157%
O=C(CN(Cc1ccccc1)S(=O)(=O)c1ccc(F)cc1)NCCC1=CCCCC1 |  | inactive: 76.9%
COc1ccc(CNC(=S)NC2CCCC2)cc1 |  | inactive: 16.9%
O=C(Nc1ccc(F)cc1)c1ccc2c(=O)n3c(nc2c1)CCCCC3 | active: 4.65 µM | 
CCCC(C)C(=O)Nc1ccc(S(=O)(=O)N2CCCC2)cc1 (stereo not drawn) | inconclusive: 18.5 µM [inhibitor, single point] | 
CCCC(=O)Nc1c(C(=O)OCC)[nH]c2ccccc12 | inconclusive: 18.5 µM [inhibitor, single point] | 
Cc1ccccc1OCCC(=O)N1CCN(S(=O)(=O)c2ccc(F)cc2)CC1 |  | inactive: -14.8%
CCCCn1c(N)c(N(CCC(C)C)C(=O)c2[nH]c(C)c(C(=O)OCC)c2C)c(=O)[nH]c1=O | inconclusive: 4.65 µM [inhibitor, partial curve, poor fit] | 
CN(C(=O)COC(=O)c1n[nH]c2ccccc12)c1ccccc1 |  | inactive: 136%
O=C(COc1c(Br)cc(Br)cc1Br)N/N=C/c1ccco1 | inconclusive: 18.5 µM [inhibitor, single point] | 
O=C(Nc1ccc(Cl)c(S(=O)(=O)N2CCCCC2)c1)c1cccnc1 | inconclusive: 18.5 µM [inhibitor, single point] | 
Cc1ccc(CSc2nnc(-c3ccncc3)o2)c(C)c1 | inconclusive: 11.7 µM [inhibitor, partial curve, poor fit] | 
CCC(CC)NC(=O)c1cc(S(=O)(=O)N2CCCCC2)ccc1N1CCOCC1 | inconclusive: 13.1 µM [inhibitor, single point] | 
COc1ccccc1N1C(=O)C2C(c3ccc(F)cc3)NN(C(=O)c3ccc(C)cc3)C2C1=O (stereo not drawn) |  | inactive: -15.6%
COCCNC(=O)C(c1ccc(F)cc1)N(C(=O)CCC(=O)Nc1ccccn1)c1cccc(C)c1 (stereo not drawn) | inconclusive: 4.65 µM [inhibitor, single point] | 
Cc1nc2sc(C(c3ccccc3)N3CC(C)OC(C)C3)c(O)n2n1 (stereo not drawn) | inconclusive: 2.94 µM [inhibitor, single point] | 
CCS(=O)(=O)c1nc(S(=O)(=O)c2ccc(C)cc2)c(NCCCn2ccnc2)s1 | inconclusive: 18.5 µM [inhibitor, single point] | 
CCOc1ncccc1C(=O)N1CCN(C(c2ccccc2)c2ccccc2)CC1 | inconclusive: 8.28 µM [inhibitor, partial curve, poor fit] | 
COC(=O)[C@H]1C[C@@H]1[C@H](NS(=O)(=O)c1ccc2ccccc2c1)c1ccccc1 | inconclusive: 11.7 µM [inhibitor, single point] | 
CCOc1cccc(-c2c(C(=O)N/N=C/c3ccc(C)o3)nnn2-c2nonc2N)c1 | inconclusive: 18.5 µM [inhibitor, single point] | 
CCN(CC(=O)Nc1c(F)cccc1F)C(=O)C1CCCN(C(=O)c2ccc(Cl)cc2)C1 (stereo not drawn) | inconclusive: 20.8 µM [inhibitor, single point] | 

SMILES | Potency | activity change, negative = inhibition
O=C(NC1CCCCC1)N1CCN(Cc2ccco2)CC1 | inconclusive: 9.28 µM [inhibitor, partial curve, poor fit] | 
CCOc1ccccc1NC(=O)CCc1c(C)nn(-c2ccc(N3CCCCC3)nn2)c1C | inconclusive: 13.1 µM [inhibitor, single point] | 
O=C(CSC(=S)N1CCCC1)NCC(=O)Nc1ccccc1Br |  | inactive: 0.708%
O=C(Nc1ccc(C(=O)N2CCCCC2)cc1)C1CCCCC1 | inconclusive: 18.5 µM [inhibitor, single point] | 
CN(C)CCNC(=O)Cn1ccc2cc(S(=O)(=O)N3CCCCCC3)ccc21 |  | inactive: -4.26%
COc1ccc(CNC(=O)Cn2nc(C(F)(F)F)cc2C)cc1 | active: 13.1 µM | 
COc1ccc2c(c1)C(=O)N(c1ccc(C)cc1C)C(=O)C2(C)C | inconclusive: 13.1 µM [inhibitor, single point] | 
O=C1C2C3C=CC(C3)C2C(=O)N1CCCCCCN1C(=O)C2C3C=CC(C3)C2C1=O (stereo not drawn) |  | inactive: -14.5%
COc1ccc(-c2nc(NC(=O)Cn3c(=O)oc4ccccc43)sc2C)cc1 | inconclusive: 18.5 µM [inhibitor, single point] | 
CC12CCC(=O)N1C(C(=O)Nc1cc(Cl)ccc1N1CCCC1)CS2 (stereo not drawn) | inconclusive: 11.7 µM [inhibitor, single point] | 
CCOc1cccc(N2C(=O)CC(N(CCc3ccc(OC)c(OC)c3)C(=O)CC)C2=O)c1 (stereo not drawn) | active: 5.86 µM | 
Cc1ccc2nc(SCC(=O)N/N=C/c3ccco3)cc(C)c2c1 |  | inactive: -17.5%
CC1(C)C(=O)OC(C(=O)c2ccc(C(C)(C)C)cc2)C(C)(C)C1=O (stereo not drawn) | inconclusive: 2.62 µM [inhibitor, full curve, poor fit] | 
COc1ccc(CN2C(=O)c3cccnc3C2=O)cc1S(=O)(=O)N1CCCC(C)C1 (stereo not drawn) | active: 14.7 µM | 
COc1ccccc1-c1sc2ccccc2c1-c1ccc(C(C)=O)cc1 | inconclusive: 11.7 µM [inhibitor, single point] | 
Cc1ccccc1OCC(=O)NCC(=O)N/N=C/c1ccc(Br)o1 |  | inactive: -25.5%
OC(CNc1nc(-c2cccnc2)nc2ccccc12)c1ccccc1 (stereo not drawn) | inconclusive: 1.65 µM [inhibitor, full curve] | 
COc1ccc(-c2c(C(F)(F)F)oc3cc(OCC(=O)Nc4ccccc4C(F)(F)F)ccc3c2=O)cc1OC | inconclusive: 10.4 µM [inhibitor, single point] | 
Cc1ccc(S(=O)(=O)CCC(=O)Nc2nnc(-c3ccccc3S(C)(=O)=O)o2)cc1 | inconclusive: 9.28 µM [inhibitor, partial curve, poor fit] | 
COc1ccc(C2(c3ccc(OC)cc3)NC(=O)N(CC(=O)NC3(C#N)CCCC3)C2=O)cc1 | inconclusive: 10.4 µM [inhibitor, partial curve, poor fit] | 
Cc1ccc(-c2noc(CCC(=O)Nc3ccc4c(c3)OCO4)n2)cc1 | active: 2.33 µM | 

Single values from the entries so far:
`CCCC(=O)Nc1c(C(=O)OCC)[nH]c2ccccc12` | Potency: inconclusive: 18.5 µM [inhibitor, single point]
`Cc1ccc2nc(SCC(=O)N/N=C/c3ccco3)cc(C)c2c1` | activity change, negative = inhibition: inactive: -17.5%
`CN(C)CCNC(=O)Cn1ccc2cc(S(=O)(=O)N3CCCCCC3)ccc21` | activity change, negative = inhibition: inactive: -4.26%
